Test results taken from paper PMC5771197.
No constants are given. Whether binding was seen depends on the method and setting.

Sequences of proteins named here, by UniProt entry; tags and fusion partners are left off.
UniProt P12520: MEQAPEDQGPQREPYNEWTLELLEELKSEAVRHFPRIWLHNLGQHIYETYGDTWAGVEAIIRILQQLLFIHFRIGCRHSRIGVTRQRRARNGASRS
UniProt P27694: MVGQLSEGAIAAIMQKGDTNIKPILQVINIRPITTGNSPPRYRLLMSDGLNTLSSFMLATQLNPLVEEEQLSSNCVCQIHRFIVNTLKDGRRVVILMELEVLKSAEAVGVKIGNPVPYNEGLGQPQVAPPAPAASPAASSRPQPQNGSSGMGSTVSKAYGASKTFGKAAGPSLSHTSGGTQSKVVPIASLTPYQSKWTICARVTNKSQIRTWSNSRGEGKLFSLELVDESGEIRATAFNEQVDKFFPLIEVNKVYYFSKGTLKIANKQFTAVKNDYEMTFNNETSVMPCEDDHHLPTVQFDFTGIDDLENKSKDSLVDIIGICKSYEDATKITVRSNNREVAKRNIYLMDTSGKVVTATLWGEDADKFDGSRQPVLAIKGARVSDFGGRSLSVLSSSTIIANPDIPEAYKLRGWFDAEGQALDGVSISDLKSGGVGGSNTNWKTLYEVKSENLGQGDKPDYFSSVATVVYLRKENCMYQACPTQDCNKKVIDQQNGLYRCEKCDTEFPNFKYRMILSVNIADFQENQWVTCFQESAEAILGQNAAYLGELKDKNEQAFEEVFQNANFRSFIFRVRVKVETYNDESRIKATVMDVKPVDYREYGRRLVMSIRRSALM

B1: T4gp32 (T4 gene 32 protein) (protein, UniProt P03695 1-301)
chain: MFKRKSTAELAAQMAKLNGNKGFSSEDKGEWKLKLDNAGNGQAVIRFLPSKNDEQAPFAILVNHGFKKNGKWYIETCSSTHGDYDSCPVCQYISKNDLYNTDNKEYSLVKRKTSYWANILVVKDPAAPENEGKVFKYRFGKKIWDKINAMIAVDVEMGETPVDVTCPWEGANFVLKVKQVSGFSNYDESKFLNQSAIPNIDDESFQKELFEQMVDLSEMTSKDKFKSFEELNTKFGQVMGTAVMGGAAATAAKKADKVADDLDAFNVDDFNTKTEDDFMSSSSGSSSSADDTDLDDLLNDL

Columns and labels:
[1] = biological target: FLAG-Strep-tag2 (F/S) fused to the N-terminus of Vpr (viral protein R of HIV-1, pNL4-3) (HIV-1 (pNL4-3)) (UniProt P12520); experiment: condition: FLAG-Strep-Vpr 0.1, 0.317, 1.0 pmol with rRPA70 1.0 pmol; pull-down; FLAG-Strep-Vpr (0.1, 0.317, 1.0 pmol) incubated with rRPA70 (1.0 pmol), pulled down with Streptavidine M280 beads; proteins analysed by Western blot; both purified
[2] = biological target: FLAG-Strep-tag2 (F/S) fused to the N-terminus of Vpr (viral protein R of HIV-1, pNL4-3) (HIV-1 (pNL4-3)) (UniProt P12520); experiment: condition: FLAG-Strep-Vpr 1, 3.17, 10 pmol with T4gp32 100 pmol; pull-down; FLAG-Strep-Vpr (1, 3.17, 10 pmol) incubated with T4gp32 (100 pmol), pulled down with Streptavidine M280 beads; proteins visualized by Oriole fluorescent gel staining; both purified

Row | Molecule | binding [1] | binding [2]
1 | recombinant RPA70 (replication protein A 70-kDa subunit, hRPA70) (from UniProt P27694 1-616) | no binding | 
2 | B1 |  | no binding
